# PubChem BioAssay AID493014 (National Center for Advancing Translational Sciences (NCATS), 2011)
# This is one part of the list. Further columns of the screen follow, without active or inactive calls. Compounds called inactive in the main read-out are mostly missing here. Potencies come from curve fits of mixed quality, noted in brackets.
# Assay: qHTS Assay to Find Inhibitors of Chronic Active B-Cell Receptor Signaling
# Conditions: ABC-DLBCL IkBa-CBG/CBR reporter, luminescence ratio (green luciferase fused to IkBa over red control in TMD8 lymphoma cells), 4 h
# Method in brief: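 TMD8 human ABC-DLBCL cells with doxycycline-inducible IκBα–green luciferase fusion and unfused red luciferase, in 0.5% FBS medium; compounds up to 46 uM, 4 h at 37C. Green/red luminescence ratio, filter-overlap corrected, fitted to concentration-response curves.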
# [1] = measured here: CBR red luminescence, cell number
smiles,measurement,setting,value
O=C(Nc1ccccc1)c1ccc(NCCN2C(=O)CCC2=O)c([N+](=O)[O-])c1,AC50,[1],"0.794 µM [rising, full curve, poor fit]"
Cc1ccc(-n2c(Cc3cccs3)nnc2SCC(=O)OC(C)C)cc1,AC50,[1],"35.5 µM [falling, single point]"
OC(CSc1ccccc1Cl)CN1CCN(c2ccccc2F)CC1 (configuration not stated),AC50,[1],"10.3 µM [rising, partial curve]"
Cc1cc(C(C)(C)C)n2nc(C)c(-c3ccccc3)c2n1,AC50,[1],"35.5 µM [rising, single point]"
COc1ccc(C2NC(=O)NC(C)=C2C(C)=O)cc1 (configuration not stated),AC50,[1],"29.1 µM [rising, single point]"
COc1ccc(-c2ccc3oc(-c4ccsc4)cc(=O)c3c2)cc1F,AC50,[1],"2.06 µM [falling, partial curve]"
C=CCc1c(C)nc(SCC(=C)C)[nH]c1=O,AC50,[1],"14.6 µM [rising, partial curve]"
Clc1ccc(-c2csc(N3CCc4ccccc4C3)n2)cc1,AC50,[1],"3.98 µM [rising, partial curve, poor fit]"
COc1cc(OC)cc(C(=O)NC(=S)Nc2ccc(Cl)c(C(=O)O)c2)c1,AC50,[1],"22.4 µM [falling, single point]"
COc1ccccc1C(=O)NC(CCSC)C(=O)NNC(=O)c1ccccc1O (configuration not stated),AC50,[1],"16.4 µM [falling, single point]"
CCc1nn2c(NCCOC)cc(C)nc2c1-c1ccc(F)cc1,AC50,[1],"35.5 µM [falling, single point]"
CC(O)CNCCNCc1c(OCc2ccccc2)ccc2ccccc12 (configuration not stated),AC50,[1],"11.2 µM [falling, partial curve]"
O=c1c2ccccc2nc2n1C1(CCCCC1)Cc1ccccc1-2,AC50,[1],"29.1 µM [rising, single point]"
CCCCSc1nc2sc3c(c2c(=O)[nH]1)CC(C)(CC)OC3 (configuration not stated),AC50,[1],"31.6 µM [rising, single point]"
COc1cccc(C(=O)NNC(=O)CCc2ccccc2)c1,AC50,[1],"11.2 µM [falling, partial curve, poor fit]"
O=C(N/N=C/c1ccc(F)cc1)c1cccc(NC(=O)c2ccccc2Cl)c1,AC50,[1],"35.5 µM [falling, single point]"
CCc1oc(C(=O)OC)cc1CSC(=N)N,AC50,[1],"35.5 µM [falling, single point]"
Cc1c(Br)cc(C(=O)NCCCN2CCOCC2)c(C)c1C,AC50,[1],"2.06 µM [falling, partial curve, poor fit]"
O=C(CCc1ccccc1)c1ccc2c(c1)OCCCO2,AC50,[1],"0.103 µM [rising, full curve, poor fit]"
CCN1CCN(c2c(/C=C3\SC(=S)N(Cc4ccco4)C3=O)c(C)c(C#N)c(=O)n2C)CC1,AC50,[1],"15.8 µM [falling, single point]"
O=c1[nH]c(C2CCN(S(=O)(=O)c3ccccc3)CC2)nc2c1nnn2Cc1c(F)cccc1Cl,AC50,[1],"12.6 µM [falling, partial curve]"
CN(Cc1ccccc1)C(=O)COc1ccc(C(C)(C)C)cc1,AC50,[1],"10 µM [falling, single point]"
O=C1C(Cl)=C(Nc2ccc(F)cc2)C(=O)N1CCc1ccccc1,AC50,[1],"25.9 µM [falling, single point]"
Cc1ccccc1N(CC(=O)N1CCOCC1)S(C)(=O)=O,AC50,[1],"0.631 µM [rising, full curve, poor fit]"
O=C(NN=C1CCCCCC1)c1ccc2c(c1)OCO2,AC50,[1],"7.08 µM [falling, partial curve]"
Cc1ccccc1-n1nnnc1SCC(C)C,AC50,[1],"0.447 µM [falling, full curve, poor fit]"
Cc1ccc(C(=O)Oc2oc(-c3ccccc3)nc2C=Nc2ccc(N(C)C)cc2)cc1,AC50,[1],"5.8 µM [falling, full curve]"
CN=c1scc(-c2ccc(F)cc2)n1/N=C/c1ccc(O)c(O)c1,AC50,[1],"17.8 µM [falling, partial curve]"
CO/N=C/NC(=O)Cc1cn(-c2ncc(C(F)(F)F)cc2Cl)c2ccccc12,AC50,[1],"16.4 µM [falling, single point]"
Cc1cccc(N(C(=O)CS(=O)CC(=O)Nc2ccc3c(c2)OCO3)C(C)C(=O)NC2CCCC2)c1C (configuration not stated),AC50,[1],"3.98 µM [rising, partial curve, poor fit]"
C=CC[C@H](CC(=O)N(CCO)Cc1ccccc1)C(=O)N[C@H](C)COC(=O)[C@@H](CC=C)Cc1ccc(F)cc1,AC50,[1],"13 µM [falling, single point]"
CC(C)CCNC(=O)CN(Cc1ccc2c(c1)OCO2)C(=O)CCC(=O)Nc1ccccn1,AC50,[1],"12.6 µM [rising, single point]"
O=C(Nc1cccc(S(=O)(=O)N2CCOCC2)c1)c1ccc2c(=O)n3c(nc2c1)CCCCC3,AC50,[1],"35.5 µM [falling, single point]"
Cc1ccc(Cn2nnc3c(=O)n(CC(=O)NCc4ccco4)cnc32)cc1,AC50,[1],"29.1 µM [rising, single point]"
COc1cccc(/C=C2\CCC(C3CCCC3)C2=O)c1OC (configuration not stated),AC50,[1],"11.2 µM [falling, partial curve, poor fit]"
CCOC(=O)C1=C(COC(=O)/C=C/c2ccc(O)c(OC)c2)NC(=O)NC1C (configuration not stated),AC50,[1],"0.731 µM [rising, partial curve, poor fit]"
same,AC50,measured here: IkBa-CBG green luminescence,"14.6 µM [falling, partial curve]"
Cc1cc(C(=O)NC2CC(C)(C)Cc3c2cnn3-c2ccccc2C)c(C)o1 (configuration not stated),AC50,[1],"17.8 µM [falling, single point]"
COc1ccc(C(=O)c2ccccc2)c(O)c1,AC50,[1],"16.4 µM [rising, partial curve]"
O=C(Nc1ccc2c(c1)Cc1ccccc1-2)c1cccnc1,AC50,[1],"11.2 µM [falling, single point]"
COc1ccc(-c2nc(Cn3c(SCc4ccc(C)cc4)nc4ccncc43)c(C)o2)cc1OC,AC50,[1],"20.6 µM [falling, single point]"
COc1ccc(/C(C)=N/NC(=O)c2ccc(NS(=O)(=O)c3cccs3)cc2)cc1,AC50,[1],"10 µM [falling, partial curve]"
Cc1ccc(CNC(=O)c2ccc(Cl)c(S(N)(=O)=O)c2)n1C,AC50,[1],"35.5 µM [rising, single point]"
O=C(CN1C(=O)NC2(CCCCC2)C1=O)Nc1ccccc1N1CCCC1,AC50,[1],"18.4 µM [rising, partial curve, poor fit]"
CN(C)c1nc(-c2ccc([N+](=O)[O-])cc2)cs1,AC50,[1],"14.6 µM [rising, partial curve, poor fit]"
CSc1sc(C(=O)NCC2CC2)cc1S(=O)(=O)C(C)C,AC50,[1],"10 µM [rising, partial curve, poor fit]"
COc1ccc(Cl)cc1NC(=O)CSc1sc2c(O)cc(=O)[nH]c2c1C#N,AC50,[1],"6.31 µM [falling, single point]"
CCOC(=O)CSc1nc2sc3c(c2c(=O)[nH]1)CC(C)(C)OC3,AC50,[1],"35.5 µM [rising, single point]"
COc1ccc(NCc2nnc(-c3ccccc3)o2)cc1,AC50,[1],"2 µM [rising, full curve]"
Cc1cccc(NC(=S)NN(Cc2ccccc2)c2ccccc2)c1C,AC50,[1],"2.59 µM [rising, partial curve, poor fit]"
CN(CC(=O)Nc1cccc(F)c1)C(=O)CSc1ccccc1F,AC50,[1],"22.4 µM [rising, partial curve, poor fit]"
N#CC1=C(N)Oc2cc(O)ccc2C1C1CCCCC1 (configuration not stated),AC50,[1],"8.91 µM [falling, single point]"
CCN(CC)CCn1c(=S)[nH]c2cc(C(=O)NCc3ccccc3Cl)ccc2c1=O,AC50,[1],"14.1 µM [falling, partial curve, poor fit]"
CC1(C)CCC[C@]2(C)[C@H]3CC(=O)O[C@]3(C)CC[C@@H]12,AC50,[1],"2.82 µM [rising, partial curve, poor fit]"
CC(=O)c1sc(Nc2nc3cc4c(cc3s2)OCO4)nc1C,AC50,[1],"0.355 µM [rising, full curve, poor fit]"
CCCNC(=O)c1cc2cc([N+](=O)[O-])ccc2s1,AC50,[1],"3.16 µM [rising, full curve, poor fit]"
CCOC(=O)c1ccc(OS(=O)(=O)c2ccccc2)c(OC)c1,AC50,[1],"16.4 µM [rising, partial curve]"
CCn1c(SCC(=O)Nc2ccccc2C)nnc1-c1ccccc1O,AC50,[1],"0.0116 µM [falling, full curve, poor fit]"
COc1cccc(CNC(=O)CN2c3cccc4cccc(c34)S2(=O)=O)c1,AC50,[1],"1.64 µM [falling, full curve]"
O=C(CCc1nc2ccccc2s1)Nc1ccccc1,AC50,[1],"29.1 µM [falling, single point]"
Cc1nc(-c2ccc3c(c2)OCCCO3)cs1,AC50,[1],"7.08 µM [rising, full curve, poor fit]"
COc1cc(C(N)=O)cc(Br)c1OC,AC50,[1],"18.4 µM [falling, partial curve, poor fit]"
O=C(/C=C/c1ccccc1)NC(=S)NNS(=O)(=O)c1ccccc1,AC50,[1],"4.47 µM [rising, single point]"
CCN1CCCC1CNC(=O)c1ccc(Sc2ccccc2Cl)c([N+](=O)[O-])c1 (configuration not stated),AC50,[1],"11.2 µM [falling, partial curve]"
O=C(O)c1ccc(NC(=S)NC(NC(=O)c2ccco2)C(Cl)(Cl)Cl)cc1 (configuration not stated),AC50,[1],"16.4 µM [falling, single point]"
COc1ccc(C2CC2/C(C)=N/OC(=O)C2CC2)cc1 (configuration not stated),AC50,[1],"0.316 µM [rising, full curve, poor fit]"
Cc1ccc(C(=O)NCC(=O)Nc2ccc3c(c2)CCC3)cc1,AC50,[1],"8.2 µM [rising, partial curve]"

# Rewritten with tabs: entries from further up.
smiles	measurement	setting	value
COc1cc(OC)cc(C(=O)NC(=S)Nc2ccc(Cl)c(C(=O)O)c2)c1	AC50	[1]	22.4 µM [falling, single point]
COc1ccccc1C(=O)NC(CCSC)C(=O)NNC(=O)c1ccccc1O (configuration not stated)	AC50	[1]	16.4 µM [falling, single point]
CCc1nn2c(NCCOC)cc(C)nc2c1-c1ccc(F)cc1	AC50	[1]	35.5 µM [falling, single point]
CC(O)CNCCNCc1c(OCc2ccccc2)ccc2ccccc12 (configuration not stated)	AC50	[1]	11.2 µM [falling, partial curve]
O=c1c2ccccc2nc2n1C1(CCCCC1)Cc1ccccc1-2	AC50	[1]	29.1 µM [rising, single point]
CCCCSc1nc2sc3c(c2c(=O)[nH]1)CC(C)(CC)OC3 (configuration not stated)	AC50	[1]	31.6 µM [rising, single point]
COc1cccc(C(=O)NNC(=O)CCc2ccccc2)c1	AC50	[1]	11.2 µM [falling, partial curve, poor fit]
O=C(N/N=C/c1ccc(F)cc1)c1cccc(NC(=O)c2ccccc2Cl)c1	AC50	[1]	35.5 µM [falling, single point]
CCc1oc(C(=O)OC)cc1CSC(=N)N	AC50	[1]	35.5 µM [falling, single point]
Cc1c(Br)cc(C(=O)NCCCN2CCOCC2)c(C)c1C	AC50	[1]	2.06 µM [falling, partial curve, poor fit]
O=C(CCc1ccccc1)c1ccc2c(c1)OCCCO2	AC50	[1]	0.103 µM [rising, full curve, poor fit]
CCN1CCN(c2c(/C=C3\SC(=S)N(Cc4ccco4)C3=O)c(C)c(C#N)c(=O)n2C)CC1	AC50	[1]	15.8 µM [falling, single point]
O=c1[nH]c(C2CCN(S(=O)(=O)c3ccccc3)CC2)nc2c1nnn2Cc1c(F)cccc1Cl	AC50	[1]	12.6 µM [falling, partial curve]
CN(Cc1ccccc1)C(=O)COc1ccc(C(C)(C)C)cc1	AC50	[1]	10 µM [falling, single point]
O=C1C(Cl)=C(Nc2ccc(F)cc2)C(=O)N1CCc1ccccc1	AC50	[1]	25.9 µM [falling, single point]
Cc1ccccc1N(CC(=O)N1CCOCC1)S(C)(=O)=O	AC50	[1]	0.631 µM [rising, full curve, poor fit]
O=C(NN=C1CCCCCC1)c1ccc2c(c1)OCO2	AC50	[1]	7.08 µM [falling, partial curve]
Cc1ccccc1-n1nnnc1SCC(C)C	AC50	[1]	0.447 µM [falling, full curve, poor fit]
